Experimental data from US20140206846A1.
Positions count from the first letter of the chain named. These are yes or no findings as the source states them, for the method shown. Some results given as binding are weak or reduced against the parent protein; the word gives no strength.

The chains behind the UniProt entries cited, without tags or fusion partners. Residues count along the entry.
UniProt P04141, residues 18-144: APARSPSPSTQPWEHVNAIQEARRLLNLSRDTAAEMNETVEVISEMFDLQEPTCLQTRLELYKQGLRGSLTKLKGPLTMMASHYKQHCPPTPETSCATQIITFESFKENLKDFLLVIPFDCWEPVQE
UniProt P05231, residues 30-212: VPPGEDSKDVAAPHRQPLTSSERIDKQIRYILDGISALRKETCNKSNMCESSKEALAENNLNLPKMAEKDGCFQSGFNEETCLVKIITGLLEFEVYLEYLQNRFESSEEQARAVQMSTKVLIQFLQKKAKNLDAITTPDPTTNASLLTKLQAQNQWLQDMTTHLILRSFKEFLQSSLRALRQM

B1: GH6L (bispecific antibody, human IgG1, V domains shown)
VH: WVQLVESGGGLVQPGGSLRLSCAAKGALFSTYAMSWIRQAPGKGLEWIGQISGSGGSTVYNYNVLGRFTISRDNSKNTLYLQMNSLRAEDTAVYYCARDSGYFDIWGQGTLVTVSS
VL: ATQRTQSPSSLSASVGDRVTITCRALWHISSYLAWYQQKPGKAPKLLIYAASWLYWDVPSRFSGSGSGTDFTLTISSLQPEDFATYYCQQYSGLPYTFGQGTKVEIK
B2: VH6L (bispecific antibody, V domains shown)
VH: B1 VH with W1Y, V2Y, K25D, A27F, T31G, S100T, I105H
VL: B1 VL with A1N, T2I, R4K, W53H, Y55H, W56Y, D57G

Tests used:
[1] = target: human GMCSF (human) (UniProt P04141); test: Biacore SPR, GH6L IgG1 captured on GMCSF amine-coupled to a CM5 chip
[2] = target: human IL6 (human) (UniProt P05231); test: Biacore SPR, GH6L IgG1 captured on immobilised GMCSF or on anti-light chain antibody, IL6 as analyte
[3] = target: human IL6 (human) (UniProt P05231); test: Biacore SPR, Fab captured by anti-light chain antibody, antigen as analyte

| Binder | binding [1] | binding [2] | binding [3] |
| --- | --- | --- | --- |
| B1 | binds | binds | – |
| B2 | – | – | binds |
